From US20200239578A1
These are yes or no findings as the source states them, for the method shown. Some binding calls cover weakened binding; strength is not graded here.

Molecular target: T1, rat BTLA on splenocytes of Sprague Dawley rats (rat) (UniProt Q6PNM1)
T1 sequence (looked up): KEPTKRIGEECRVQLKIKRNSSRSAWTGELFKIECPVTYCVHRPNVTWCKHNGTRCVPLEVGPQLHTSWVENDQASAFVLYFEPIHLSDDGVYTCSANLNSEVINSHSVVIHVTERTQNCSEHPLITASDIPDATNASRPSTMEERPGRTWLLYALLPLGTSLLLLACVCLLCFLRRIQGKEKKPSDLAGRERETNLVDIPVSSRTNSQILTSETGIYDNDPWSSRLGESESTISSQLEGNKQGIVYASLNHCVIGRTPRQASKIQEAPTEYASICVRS
Test: flow cytometry (FACS) on primary cells

B1: Antibody 22B3 (antibody, human IgG4 S228P, kappa, F234A L235A, V domains shown)
VH: QVQLVQSGAEVKKPGASVKVSCKASGFSLSSYGVSWVRQAPGQGLEWMGAISYDGITYYASWAKSRVTMTRDTSTSTVYMELSSLRSEDTAVYYCARGDYYDDYVYVYALDIWGQGTLVTVSS
VL: EIVLTQSPGTLSLSPGERATLSCQASQSISTALAWYQQKPGQAPRLLIYAASTLASGIPDRFSGSGSGTDFTLTISRLEPEDFAVYYCQQGYSSSNLDNVFGGGTKVEIKR
Q: For B1, which binding is on record?
A: binds
